Measured values taken from PubChem BioAssay AID540256 (National Center for Advancing Translational Sciences (NCATS), 2011).
Out of some 300,000 compounds screened, about 3,700 (1.2%) were called active. The inconclusive results got no clear call from the source; some entries with a clear call stand among them for comparison. The call rests on the fitted dose curve; tested in HEK293 cells. Potencies of inconclusive entries are doubtful fits and often do not repeat.

Assay: qHTS for Inhibitors of binding or entry into cells for Lassa Virus; further: nearly all actives have a fitted effect of over 50% in size
Details: Lassa virus pseudotype entry inhibition, cell reporter; series mostly up to 37.9 µM
Potency means the concentration at half of the fitted maximal effect.

For CCc1ccc(S(=O)(=O)N2CCCC(N3CCN(c4ccc(OC)cc4)CC3)C2)cc1 (stereo unspecified), which Potency is on record?
Its Potency is inconclusive: 15.8 µM [inhibitor, single point].

Which Potency does the source give for CC(C)(C)C(=O)Nc1ccc(N2CCN(S(C)(=O)=O)CC2)cc1 here?
Its Potency is inconclusive: 14.1 µM [activator, single point].

With CCOc1ccc(-c2noc(CCC(=O)NC3CCCCC3)n2)cc1OC as the molecule, how does the Potency read?
Its Potency is inconclusive: 22.4 µM [inhibitor, single point].

Which Potency does the source give for Cc1ccc(NC(=O)c2snc3ccc(Cl)cc23)cc1C here?
The Potency was “inactive”.

Which Potency does the source give for Cn1c(=O)c(=O)n(C)c2cc(N3CCCC3)c(NS(=O)(=O)c3ccc(F)cc3)cc21 here?
The Potency was “inactive”.

For CCOC(=O)N1CCN(c2ccccc2OC)CC1, which Potency is on record?
Its Potency is “inactive”.

For Cc1ccc(-n2nc(CC#N)c(C#N)c2N)cc1Cl, which Potency is on record?
Its Potency is inconclusive: 1.78 µM [inhibitor, partial curve, poor fit].

Which Potency does the source give for O=C(Nc1ccccc1)N1CCN(CCc2ccccc2)CC1 here?
Its Potency is inconclusive: 1.26 µM [inhibitor, single point].

Which Potency does the source give for COCCn1ccc2c(OCC(=O)NCc3ccc(C)cc3)cccc2c1=O here?
Its Potency is inconclusive: 0.112 µM [inhibitor, full curve, poor fit].

Which Potency does the source give for COc1ccc(CCNc2cc(N3CCN(C(=O)c4ccccc4OC)CC3)ccc2[N+](=O)[O-])cc1OC here?
Its Potency is inconclusive: 6.31 µM [inhibitor, single point].

Which Potency does the source give for COCCOC(=O)c1c(C)oc2c1cc(NS(=O)(=O)c1ccc(Cl)c(C)c1)c1ccccc12 here?
The Potency was inconclusive: 10 µM [inhibitor, partial curve, poor fit].

Which Potency does the source give for COC(=O)c1ccc(-c2sc3nc(N4CCOCC4)c4c(c3c2N)CC(C)(C)OC4)o1 here?
The Potency was inconclusive: 1.58 µM [activator, full curve, poor fit].

With Cc1nn(C)c2c1c(C(F)(F)F)cc(=O)n2C(C)C(=O)NCCc1ccc(Cl)cc1 (stereo unspecified) as the molecule, how does the Potency read?
Its Potency is “inactive”.

Which Potency does the source give for CC1(C)Cc2c(cnn2-c2ccc(F)cc2)C(NC(=O)CCC(F)(F)F)C1 (stereo unspecified) here?
The Potency was inconclusive: 35.5 µM [inhibitor, single point].

With COc1ccc(NC(=O)c2ccccc2NC(=O)c2ccco2)c(OC)c1 as the molecule, how does the Potency read?
The Potency was “inactive”.

Which Potency does the source give for COc1cc(OC)cc(C(=O)Nc2ccc(N3CCN(C(=O)c4cccs4)CC3)cc2)c1 here?
Its Potency is inconclusive: 12.6 µM [inhibitor, single point].

Which Potency does the source give for Cc1cc(Br)cc2c(C(=O)Nc3c(C)n(C)n(-c4ccccc4)c3=O)cc(-c3cccs3)nc12 here?
The Potency was inconclusive: 18.3 µM [inhibitor, partial curve, poor fit].

For COc1ccc(C2=Nc3ccccc3OC2)cc1, which Potency is on record?
Its Potency is inconclusive: 0.501 µM [activator, single point].

Which Potency does the source give for COc1ccc(F)cc1S(=O)(=O)NC1CCCCCC1 here?
Its Potency is inconclusive: 5.62 µM [activator, single point].

With CC(=O)c1ccccc1OCC(O)CN1CCN(CCN2C(=O)c3cccc4cccc(c34)C2=O)CC1 (stereo unspecified) as the molecule, how does the Potency read?
The Potency was inconclusive: 3.16 µM [inhibitor, full curve, poor fit].

For Cc1c(CCC(=O)O)c(=O)oc2cc3occ(-c4ccc(F)cc4)c3cc12, which Potency is on record?
Its Potency is “inactive”.

With O=C(Nc1ccccc1C(=O)N1CCCCCC1)c1cccc([N+](=O)[O-])c1 as the molecule, how does the Potency read?
Its Potency is inconclusive: 0.794 µM [activator, single point].

For NC(=O)c1cc(C(=O)Cc2ccccc2)c[nH]1, which Potency is on record?
The Potency was inconclusive: 5.62 µM [inhibitor, single point].

For Cc1ccc2onc(CNC(=O)Nc3ccccc3C#N)c2c1, which Potency is on record?
Its Potency is inconclusive: 35.5 µM [activator, single point].

For CCOC(=O)N1CCN(C(=O)COc2cccc3c2CCN(Cc2cccc(C)c2)C3=O)CC1, which Potency is on record?
The Potency was inconclusive: 15.8 µM [inhibitor, single point].

With Cc1ccc2nc(-c3cc(N)cc(N)c3)oc2c1 as the molecule, how does the Potency read?
Its Potency is inconclusive: 0.73 µM [activator, single point].

Which Potency does the source give for CC1=C(C(N)=O)C(c2ccco2)C(C(N)=O)=C(C)N1 here?
Its Potency is inconclusive: 0.461 µM [activator, full curve, poor fit].

With Cc1c(C(=O)NCC2CCCO2)oc2ccc3c(c12)C(=O)CC(C)(C)O3 (stereo unspecified) as the molecule, how does the Potency read?
Its Potency is inconclusive: 35.5 µM [inhibitor, single point].

Which Potency does the source give for COc1cc(-c2nc(-c3ccccc3)c(-c3cc([N+](=O)[O-])ccc3C)[nH]2)cc(OC)c1OC here?
The Potency was inconclusive: 17.8 µM [inhibitor, partial curve].

For O=C(Nc1ccccc1SCC1CSc2nc3ccccc3c(=O)n21)c1cccc(Cl)c1 (stereo unspecified), which Potency is on record?
The Potency was active: 2.51 µM.

For Cc1ccc(NC(=O)c2cncc(Br)c2)cc1S(=O)(=O)N(C)C, which Potency is on record?
Its Potency is inconclusive: 3.16 µM [activator, partial curve, poor fit].

Which Potency does the source give for CCOc1ccccc1NC(=O)c1cc2cc(C)ccc2n1C here?
Its Potency is inconclusive: 6.31 µM [inhibitor, partial curve].

With COC(=O)Nc1nc2ccc(Oc3cccc(NC(=O)Nc4cc(C(F)(F)F)ccc4F)c3)cc2[nH]1 as the molecule, how does the Potency read?
Its Potency is inconclusive: 11.2 µM [activator, partial curve].

With O=C(Nc1ccc2sc3ccccc3c(=O)c2c1)c1ccccc1Cl as the molecule, how does the Potency read?
Its Potency is inconclusive: 12.6 µM [inhibitor, partial curve, poor fit].

With COC(=O)c1c(NC(=O)COc2c(C)cccc2C)sc2c1CCCC2 as the molecule, how does the Potency read?
The Potency was “inactive”.

For CCc1ccc(CN(C)C(=O)c2cc(S(=O)(=O)N3CCN(CC)CC3)ccc2Cl)cc1, which Potency is on record?
The Potency was inconclusive: 6.31 µM [inhibitor, partial curve, poor fit].

For CN(C)CCCN(C(=O)c1ccc(S(=O)(=O)N2CCCC2)cc1)c1nc2c(F)cc(F)cc2s1, which Potency is on record?
The Potency was “inactive”.

For CC(C)=CCC(C)(C)C1OCCN1C(=O)Nc1ccccc1 (stereo unspecified), which Potency is on record?
The Potency was inconclusive: 25.9 µM [inhibitor, single point].

Which Potency does the source give for CCOc1ccc(CN2C(=O)c3ccccc3Sc3ccc(C(=O)NCCc4ccccc4)cc32)cc1 here?
Its Potency is inconclusive: 35.5 µM [inhibitor, single point].

Which Potency does the source give for COc1ccc2[nH]cc(CCNC(=O)Nc3cccc(F)c3)c2c1 here?
The Potency was “inactive”.

For Cc1ccc(CNS(=O)(=O)CCNC(=O)c2ccc3c(c2)OCO3)cc1, which Potency is on record?
The Potency was “inactive”.
